Values quoted from earlier work as cited in patent US20110250141A1, “Methods For Improving Skin Quality” (priority 2010, published 2011).
The name of at least one read-out is uncertain.

Conditions: as reported by C. D. Vaughan, Cosmetics and Toiletries, Vol. 103, October 1988

Compound	Vaughan Solubility Parameter (VSP)
CC(C)CCC[C@@H](C)[C@H]1CC[C@H]2[C@@H]3CC=C4C[C@@H](O)CC[C@]4(C)[C@H]3CC[C@]12C [Cholesterol]	9.55 (cal/cm^3)^1/2
CCCCCCCCCCCCCCCC(=O)OC(C)C [Isopropyl Palmitate]	7.78 (cal/cm^3)^1/2
CC(C)=CCC/C(C)=C/CC/C(C)=C/CC/C=C(\C)CC/C=C(\C)CCC=C(C)C [Squalene]	6.03 (cal/cm^3)^1/2
Cyclomethicone	5.92 (cal/cm^3)^1/2
